target: PIK3CA (human) (UniProt P42336); experiment: Inhibition of PIK3CA Kinase Activity

By UniProt entry, the sequences of proteins in these tests, tags left out.
UniProt P42336, whole entry, looked up: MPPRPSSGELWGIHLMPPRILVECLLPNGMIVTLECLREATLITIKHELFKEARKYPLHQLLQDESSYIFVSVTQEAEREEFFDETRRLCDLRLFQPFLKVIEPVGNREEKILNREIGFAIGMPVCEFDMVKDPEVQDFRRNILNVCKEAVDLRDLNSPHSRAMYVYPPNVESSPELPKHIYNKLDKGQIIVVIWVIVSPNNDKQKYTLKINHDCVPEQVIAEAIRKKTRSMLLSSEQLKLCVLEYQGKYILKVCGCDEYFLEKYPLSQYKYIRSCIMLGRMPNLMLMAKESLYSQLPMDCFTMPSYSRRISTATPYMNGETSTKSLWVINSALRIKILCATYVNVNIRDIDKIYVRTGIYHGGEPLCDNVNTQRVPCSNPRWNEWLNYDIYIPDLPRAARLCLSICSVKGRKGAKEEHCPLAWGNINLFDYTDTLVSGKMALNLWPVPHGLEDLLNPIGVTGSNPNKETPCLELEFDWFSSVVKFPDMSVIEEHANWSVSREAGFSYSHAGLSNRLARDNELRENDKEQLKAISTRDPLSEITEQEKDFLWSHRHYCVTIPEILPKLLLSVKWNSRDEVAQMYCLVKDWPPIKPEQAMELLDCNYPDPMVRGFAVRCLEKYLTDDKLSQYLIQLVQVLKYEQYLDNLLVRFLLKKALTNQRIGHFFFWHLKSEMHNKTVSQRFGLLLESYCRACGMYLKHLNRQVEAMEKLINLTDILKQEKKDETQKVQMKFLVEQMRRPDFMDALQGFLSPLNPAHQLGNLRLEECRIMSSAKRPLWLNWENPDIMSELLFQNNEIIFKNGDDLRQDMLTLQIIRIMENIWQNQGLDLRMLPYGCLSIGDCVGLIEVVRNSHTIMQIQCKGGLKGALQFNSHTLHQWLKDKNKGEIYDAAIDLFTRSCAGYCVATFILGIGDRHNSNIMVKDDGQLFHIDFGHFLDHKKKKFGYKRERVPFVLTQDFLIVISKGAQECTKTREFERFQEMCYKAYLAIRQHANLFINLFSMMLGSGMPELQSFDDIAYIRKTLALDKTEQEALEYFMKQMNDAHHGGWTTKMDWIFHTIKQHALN

IC50, < 1000 nM:
CC[C@@H](C)n1cnc2c(-c3cnc(N)nc3)nc(N3CCOCC3)nc21
CC[C@H](C)n1cnc2c(-c3cnc(N)nc3)nc(N3CCOCC3)nc21
CCC(C)n1cnc2c(-c3cnc(N)nc3)nc(N3CCOCC3)nc21 (stereo not drawn)

From the Kinase Knowledgebase extract (Sharma et al. 2016)
